In US20130059773A1, “COMPOUNDS FOR THE TREATMENT OF INFLAMMATION AND NEUTROPENIA” (priority 2010, published 2013):
No constants are given. Whether binding was seen depends on the method and setting. In cells and extracts the contact can be indirect. Some binding calls cover weakened binding; strength is not graded here.

By UniProt entry, the sequences of proteins in these tests, tags left out. Where a name states a change or a piece, a line headed by the entry shows the natural chain unless it says otherwise.
UniProt Q14790: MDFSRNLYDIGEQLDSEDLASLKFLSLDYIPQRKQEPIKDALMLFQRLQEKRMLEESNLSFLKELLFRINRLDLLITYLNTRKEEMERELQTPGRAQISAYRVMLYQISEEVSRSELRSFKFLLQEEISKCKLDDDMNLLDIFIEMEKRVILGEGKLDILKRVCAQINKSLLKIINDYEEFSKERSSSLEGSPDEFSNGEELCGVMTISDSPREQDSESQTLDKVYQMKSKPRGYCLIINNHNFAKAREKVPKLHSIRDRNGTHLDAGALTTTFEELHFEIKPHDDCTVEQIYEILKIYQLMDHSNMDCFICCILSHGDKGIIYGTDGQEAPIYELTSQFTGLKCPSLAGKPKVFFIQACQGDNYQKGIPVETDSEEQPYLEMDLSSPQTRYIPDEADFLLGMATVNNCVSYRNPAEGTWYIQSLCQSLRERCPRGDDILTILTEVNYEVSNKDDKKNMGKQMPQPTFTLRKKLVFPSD
UniProt P55211: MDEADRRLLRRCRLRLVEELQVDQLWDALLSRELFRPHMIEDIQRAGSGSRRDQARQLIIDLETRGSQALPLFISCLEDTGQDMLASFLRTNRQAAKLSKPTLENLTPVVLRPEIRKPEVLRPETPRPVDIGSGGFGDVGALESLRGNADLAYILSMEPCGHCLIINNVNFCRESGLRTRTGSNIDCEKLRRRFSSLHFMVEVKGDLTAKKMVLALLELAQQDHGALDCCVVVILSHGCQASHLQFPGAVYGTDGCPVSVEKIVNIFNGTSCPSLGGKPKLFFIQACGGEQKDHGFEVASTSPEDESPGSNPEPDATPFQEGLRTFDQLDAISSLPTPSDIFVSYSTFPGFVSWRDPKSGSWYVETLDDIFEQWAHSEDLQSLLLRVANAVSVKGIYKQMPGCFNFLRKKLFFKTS
UniProt P12004: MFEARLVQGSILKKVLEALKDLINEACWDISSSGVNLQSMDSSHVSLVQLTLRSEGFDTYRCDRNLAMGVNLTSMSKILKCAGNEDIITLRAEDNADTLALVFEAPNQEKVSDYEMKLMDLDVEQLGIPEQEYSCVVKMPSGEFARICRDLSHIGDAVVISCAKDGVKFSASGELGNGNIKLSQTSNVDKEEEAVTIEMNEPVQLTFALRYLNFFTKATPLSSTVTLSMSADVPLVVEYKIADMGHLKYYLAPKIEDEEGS

Columns and labels:
procaspase-8 (human) [1] = molecular target: procaspase-8 (human) (UniProt Q14790); experiment: co-immunoprecipitation from neutrophil cytosol (anti-PCNA IP, western blot) and reciprocal anti-procaspase IP
procaspase-3 (human) [2] = molecular target: T1, procaspase-3 (human) (UniProt P42574); experiment: as above
T1 sequence (looked up): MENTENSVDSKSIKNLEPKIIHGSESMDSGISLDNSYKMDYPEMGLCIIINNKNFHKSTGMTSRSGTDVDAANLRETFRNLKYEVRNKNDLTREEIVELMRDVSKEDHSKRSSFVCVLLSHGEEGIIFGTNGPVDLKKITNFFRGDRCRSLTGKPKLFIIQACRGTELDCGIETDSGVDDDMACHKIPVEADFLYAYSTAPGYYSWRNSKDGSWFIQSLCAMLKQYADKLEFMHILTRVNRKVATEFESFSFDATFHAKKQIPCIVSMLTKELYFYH

procaspase-10 (human) [3] = molecular target: T2, procaspase-10 (human) (UniProt Q92851); experiment: as above
T2 sequence (looked up): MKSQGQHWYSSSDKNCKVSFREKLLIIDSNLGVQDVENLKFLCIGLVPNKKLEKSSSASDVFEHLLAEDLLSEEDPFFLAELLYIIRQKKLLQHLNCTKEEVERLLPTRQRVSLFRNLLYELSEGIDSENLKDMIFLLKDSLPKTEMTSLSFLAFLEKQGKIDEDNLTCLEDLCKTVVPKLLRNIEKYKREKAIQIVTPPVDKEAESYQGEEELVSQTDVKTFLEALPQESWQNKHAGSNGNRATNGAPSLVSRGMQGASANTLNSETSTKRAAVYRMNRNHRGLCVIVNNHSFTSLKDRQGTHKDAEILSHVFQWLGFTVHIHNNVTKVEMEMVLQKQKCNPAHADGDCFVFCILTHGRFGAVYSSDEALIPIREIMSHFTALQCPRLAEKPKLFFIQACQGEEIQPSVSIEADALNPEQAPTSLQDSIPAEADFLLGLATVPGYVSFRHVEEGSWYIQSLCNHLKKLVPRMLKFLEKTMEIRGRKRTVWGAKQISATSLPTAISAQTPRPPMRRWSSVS

procaspase-9 (human) [4] = molecular target: procaspase-9 (human) (UniProt P55211); experiment: as above
procaspase-8 (human) [5] = molecular target: procaspase-8 (human) (UniProt Q14790); experiment: co-immunoprecipitation from neutrophil cytosol (discussion of the results)
procaspase-3 (human) [6] = molecular target: T1, procaspase-3 (human); experiment: as above
procaspase-10 (human) [7] = molecular target: T2, procaspase-10 (human); experiment: as above
procaspase-9 (human) [8] = molecular target: procaspase-9 (human) (UniProt P55211); experiment: as above
procaspase-8 (human) [9] = molecular target: procaspase-8 (human) (UniProt Q14790); experiment: co-immunoprecipitation from neutrophil cytosol, western blot
procaspase-10 (human) [10] = molecular target: T2, procaspase-10 (human); experiment: as above
procaspase-9 (human) [11] = molecular target: procaspase-9 (human) (UniProt P55211); experiment: as above

binding (procaspase-8 (human) [1]): binds
binding (procaspase-3 (human) [2]): binds
binding (procaspase-10 (human) [3]): binds
binding (procaspase-9 (human) [4]): binds
binding (procaspase-8 (human) [5]): binds
binding (procaspase-3 (human) [6]): binds
binding (procaspase-10 (human) [7]): binds
binding (procaspase-9 (human) [8]): binds
binding (procaspase-8 (human) [9]): binds
binding (procaspase-10 (human) [10]): binds
binding (procaspase-9 (human) [11]): binds
Substance: Proliferating Cell Nuclear Antigen (PCNA), wild type, cellular (cytosolic PCNA of human neutrophils) (from UniProt P12004 1-261)
